Measurements from article PMC7819943, “Rice protein-binding microarrays: a tool to detect cis-acting elements near promoter regions in rice”.
This is one part of the list.

By UniProt entry, the sequences of proteins in these tests, tags left out.
UniProt Q0JBA9, entry or part of it: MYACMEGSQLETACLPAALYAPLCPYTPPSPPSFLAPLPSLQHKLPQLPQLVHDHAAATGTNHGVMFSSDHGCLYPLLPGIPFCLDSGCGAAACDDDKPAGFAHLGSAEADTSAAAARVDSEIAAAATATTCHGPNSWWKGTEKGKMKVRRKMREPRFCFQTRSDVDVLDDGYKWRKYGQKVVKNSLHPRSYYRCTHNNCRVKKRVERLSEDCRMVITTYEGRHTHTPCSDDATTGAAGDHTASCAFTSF

The sequences below were run against OsWRKY34 (Oryza sativa, UniProt Q0JBA9 1-250) (assay: protein-binding microarray (RPBM); PBS, 2% BSA, 51.3 ng/ul salmon testes DNA, 50 uM zinc acetate, 200 nM TF, 25 C, 1 h; high values mean tight binding). Settings: protein: recombinant; tags: N-terminal polyhistidine and DsRed monomer fusion (pET32a); label: CyDye5-dUTP incorporated in the synthesized complementary strand; 3' TTTTT single-stranded linker to array surface; dsDNA, one strand shown.
Procedure, shortened: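 A custom Agilent array was converted to double-stranded form by primer extension with Cy5-dUTP and blocked with 2% BSA. Protein at 200 nM in PBS with 2% BSA, salmon testes DNA and 50 µM zinc acetate was applied for 1 h at 25 °C, followed by washing. The proteins were polyhistidine–DsRed N-terminal fusions of transcription factors, expressed in E. coli BL21-CodonPlus and Ni–NTA-purified. The binding signal is per-feature fluorescence intensity (arbitrary units) from an Axon 4000B scanner.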
With “CCATCCATGTTACTATTCTCTACCACGGTACACTCGCGAGCGGAGTCACCTAGTGCAG” the binding signal was 9440 fluorescence intensity (a.u.).
In the case of “CATTTTTTTAGCTTGTTCTTCCTTGTGTCACAAACATTTCCGGAGTCACCTAGTGCAG”, the binding signal is reported as 11300 fluorescence intensity (a.u.).
In the case of “ACCCAAGCTCTCTGGGATGTCACATGTATTATACCCCTTGCGGAGTCACCTAGTGCAG”, the binding signal is reported as 10100 fluorescence intensity (a.u.).
“GCTGCCACTATCAACCACCACAGTATGCCACTTCCACTGTCGGAGTCACCTAGTGCAG” was tested, and the binding signal was 9010 fluorescence intensity (a.u.).
With “AGTTTTCCTCTGTTTGTTCTCTTCTCACGCGTTCTACGCTCGGAGTCACCTAGTGCAG” the binding signal was 13100 fluorescence intensity (a.u.).
For “TCTTTCCTATTTCGGTAATTATTGTTTTGCATTTACTATTCGGAGTCACCTAGTGCAG”, the binding signal was 8860 fluorescence intensity (a.u.).
In the case of “CCTCCGTTTTCGCCACTAAAACCAACTTTGCCCTCTCTCTCGGAGTCACCTAGTGCAG”, the binding signal is reported as 9270 fluorescence intensity (a.u.).
With “CTCTCCAGTCTCCAGTGCTCTCGAGTCTCGACGCTCGCCTCGGAGTCACCTAGTGCAG” the binding signal was 8840 fluorescence intensity (a.u.).
“CAATACCTTGCAATGAAGTACCCTTTTAGAATATGGTTTTCGGAGTCACCTAGTGCAG” was tested, and the binding signal was 8410 fluorescence intensity (a.u.).
“TTGCTCCGTTCAACGCCTCTTCCCCAGCTTCACAGTACTCCGGAGTCACCTAGTGCAG” was tested, and the binding signal was 11200 fluorescence intensity (a.u.).
For “TTCTGTTTGTGTCACCTTCTATCATATGTTCTATGAAATTCGGAGTCACCTAGTGCAG”, the binding signal was 8600 fluorescence intensity (a.u.).
“GGTAGATTGGTACATAATGGCATTTCAACGTGGTATTCTACGGAGTCACCTAGTGCAG” was tested, and the binding signal was 9870 fluorescence intensity (a.u.).
For “GGGAGCTGCAGATCCCCTGCCTACTGCGCGTCCACGCTTCCGGAGTCACCTAGTGCAG”, the binding signal was 8120 fluorescence intensity (a.u.).
In the case of “TTTTTAGACTTTGATACGGTCTTCGAGATGCTATTTTGACCGGAGTCACCTAGTGCAG”, the binding signal is reported as 9320 fluorescence intensity (a.u.).
For “TCGGAGGGGCAAAGCGATTTCATTGTCATCATCGATATTTCGGAGTCACCTAGTGCAG”, the binding signal was 9010 fluorescence intensity (a.u.).
“TCCTCACTTACTATATACATCCTCCTTTCTAAATTGATCACGGAGTCACCTAGTGCAG” was tested, and the binding signal was 8530 fluorescence intensity (a.u.).
“GATGGACATTGTTTGCCATCACCGTCAACGACCGTTGACTCGGAGTCACCTAGTGCAG” was tested, and the binding signal was 12900 fluorescence intensity (a.u.).
“CTCTTCTCTCATCCAATCGCGAGCCACCAAACCCTAATCCCGGAGTCACCTAGTGCAG” was tested, and the binding signal was 8330 fluorescence intensity (a.u.).
“GAAGTTACTATATCTCTGTCTATTATTTTCTGATCTGTGCCGGAGTCACCTAGTGCAG” was tested, and the binding signal was 8870 fluorescence intensity (a.u.).
For “CACCACAGTACCACACTTGCAATCCTCTCTCTCCATCTCCCGGAGTCACCTAGTGCAG”, the binding signal was 9560 fluorescence intensity (a.u.).
With “AATAACTTCACCATCTGCCTCTCAGCTTCTTTCCTTGATTCGGAGTCACCTAGTGCAG” the binding signal was 8500 fluorescence intensity (a.u.).
In the case of “ATCACATCAACCTGTCATATACACACAACTTTTCAGTCATCGGAGTCACCTAGTGCAG”, the binding signal is reported as 8530 fluorescence intensity (a.u.).
“AAATTGGTGGGTGTTAGTTTCCCTCTACTGACTGAAATCGCGGAGTCACCTAGTGCAG” was tested, and the binding signal was 9880 fluorescence intensity (a.u.).
For “AATTTGCTGTCTGTGTACATAGCTGTTGTCTCTTATGTGTCGGAGTCACCTAGTGCAG”, the binding signal was 9480 fluorescence intensity (a.u.).
With “AAATATGGTGCTTGTTTATTTGTTCTTGGGATGATCTTGCCGGAGTCACCTAGTGCAG” the binding signal was 10000 fluorescence intensity (a.u.).
In the case of “TCTTGATTGGTTGTTTTGGTTTGTTTCTTATTTATGTTTGCGGAGTCACCTAGTGCAG”, the binding signal is reported as 8920 fluorescence intensity (a.u.).
“GGTATGGTGTCGGTTTTAGCCGGGGTCGTCGAGTCGTGCACGGAGTCACCTAGTGCAG” was tested, and the binding signal was 12000 fluorescence intensity (a.u.).
In the case of “AATCTGCGGCGCGAGGCGGAGGTGGTGGTGGTGGTGGTGGCGGAGTCACCTAGTGCAG”, the binding signal is reported as 12000 fluorescence intensity (a.u.).
For “TCCAATCAAACGGCCATTCATGTGTTTTTCCTGTGTTTTGCGGAGTCACCTAGTGCAG”, the binding signal was 9430 fluorescence intensity (a.u.).
“GTAGTAGTAGTTGTTAGCTGGAGTGGTAGTGGTACACGATCGGAGTCACCTAGTGCAG” was tested, and the binding signal was 9040 fluorescence intensity (a.u.).
In the case of “AGGTACAGAAGGGTGGTGTTTTTTTAGGAAATAAAAGTATCGGAGTCACCTAGTGCAG”, the binding signal is reported as 8830 fluorescence intensity (a.u.).
In the case of “ACACCTGTTTTCCCCATCAGCTTTTCTTCTTTTTTCATATCGGAGTCACCTAGTGCAG”, the binding signal is reported as 10200 fluorescence intensity (a.u.).
With “TCTTTTTGTGTACTTAACTTGTGTCAATCTGTCTATATAGCGGAGTCACCTAGTGCAG” the binding signal was 9660 fluorescence intensity (a.u.).
For “ACTTTAACATGCATCTAAACACCAACCAGTACTTTTGCAACGGAGTCACCTAGTGCAG”, the binding signal was 8350 fluorescence intensity (a.u.).
With “CACATTTACTCCTCGCTCATCACCTCCCCAACGACCCAACCGGAGTCACCTAGTGCAG” the binding signal was 9160 fluorescence intensity (a.u.).
With “GCTATTATCAACTTTGTCCTTTTACAAAACGTCAAATTTTCGGAGTCACCTAGTGCAG” the binding signal was 10200 fluorescence intensity (a.u.).
“CGCTGCCTCGCTCCGCTGCCCATCTCCTGTCATGCTGCTGCGGAGTCACCTAGTGCAG” was tested, and the binding signal was 8280 fluorescence intensity (a.u.).
In the case of “CCGCCACGTTGCCACTGTTGTCCCCGCGTCACCGGCCACCCGGAGTCACCTAGTGCAG”, the binding signal is reported as 11700 fluorescence intensity (a.u.).
For “GCACCGCGCTCCTTCTCTCCTGCCTCGCCCTGGCCAGCTTCGGAGTCACCTAGTGCAG”, the binding signal was 8040 fluorescence intensity (a.u.).
In the case of “AAAACTACTCCATTGACTGCTAAGCCCTTCTTTGTTTTTTCGGAGTCACCTAGTGCAG”, the binding signal is reported as 10800 fluorescence intensity (a.u.).
With “GCGGTTTCGTCCGACGTGGCGTCATTGACCCGGTTGACGACGGAGTCACCTAGTGCAG” the binding signal was 9430 fluorescence intensity (a.u.).
With “AACATTTACTCTCTTCTCTTGTTTCGGTTTGAATGAGTTTCGGAGTCACCTAGTGCAG” the binding signal was 9690 fluorescence intensity (a.u.).
